Data as given in PubChem BioAssay AID602196 (INSERM, 2012).
Here is a random part of about 23,000 deposited reagents. 455 of all reagents (2%) were called active. 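Active includes both protection and sensitisation; some change values fall well beyond the stated -50 to +50 range.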 Unmarked entries are inactive. Not all columns of the deposit are shown. Reagent sequences are not shown. Not given: the amount of reagent.

- Aim: 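Knock-downs that protect lung cancer cells from cisplatin or sensitise them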
- System: human A549 lung cancer cells
- Reagents: siRNA pair against human genes
- Timing: 48 h transfection before cisplatin; time from cisplatin to read-out not stated
- Conditions: cisplatin at a dose killing half of control-siRNA cells; exact dose and duration not given
- Read-out: 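Cisplatin cell death as a shift from the 50% death seen with control siRNA; siRNAs toxic or growth-blocking alone scored 0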
- Reading the numbers: two-siRNA summed score (-2 to +2): higher = both siRNAs protect from cisplatin killing; -2 means both sensitise
- Hit rule: 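siRNAs harmful alone (LDH or WST-1) get 0; others get +1 for less and -1 for more cisplatin killing; genes are active when the two siRNAs give the same sign, summing to ±2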
- Calls: active = both siRNAs shift cisplatin killing the same way; inactive = no consistent shift, or siRNA harmful alone

The first 2 entries, ahead of the listing:
VNN1 — two-siRNA summed score (-2 to +2) = 0
POGLUT3 — two-siRNA summed score (-2 to +2) = 0

Results, repeating the preview:
VNN1 — two-siRNA summed score (-2 to +2) = 0
POGLUT3 — two-siRNA summed score (-2 to +2) = 0
SHISA6 — two-siRNA summed score (-2 to +2) = 0
PFKFB3 — two-siRNA summed score (-2 to +2) = 0
LOC90113 — two-siRNA summed score (-2 to +2) = 0
OR2T1 — two-siRNA summed score (-2 to +2) = 1
KARS1 — two-siRNA summed score (-2 to +2) = 0
LOC388937 — two-siRNA summed score (-2 to +2) = -1
DGKG — two-siRNA summed score (-2 to +2) = 0
CD93 — two-siRNA summed score (-2 to +2) = -1
UBN1 — two-siRNA summed score (-2 to +2) = 0
GAR1 — two-siRNA summed score (-2 to +2) = 1
LOC440966 — two-siRNA summed score (-2 to +2) = 1
ZIC1 — two-siRNA summed score (-2 to +2) = 0
ALDH3A1 — two-siRNA summed score (-2 to +2) = 0
FEZF2 — two-siRNA summed score (-2 to +2) = 0
PLP1 — two-siRNA summed score (-2 to +2) = 0
ZNF268 — two-siRNA summed score (-2 to +2) = 0
LOC441134 — two-siRNA summed score (-2 to +2) = 0
ERVMER61-1 — two-siRNA summed score (-2 to +2) = 1
LOC401467 — two-siRNA summed score (-2 to +2) = 0
